Data source: PubChem BioAssay AID686943 (Drosophila RNAi Screening Center, 2013)

Aim: 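Search across the genome for regulators of signalling from receptor tyrosine kinase to ERK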 (primary screen)
Cell system: Drosophila S2R+ haemocyte-like cells expressing YFP-tagged ERK (Rolled)
Knock-down reagent: long dsRNA against Drosophila genes
Treatment: insulin stimulation versus unstimulated cells; dose and duration not given
Read-out: 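Per-plate z-scores of phospho-ERK immunostaining normalised to YFP-tagged ERK, measured with and without insulin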
Reading the numbers: replicate 1, z-score of dpERK with insulin: higher = more active ERK per ERK-YFP after insulin
In all, the deposit lists about 23,000 reagents; this is an unselected part of those with a known target gene and a result. 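Extra replicates exist only for a retested subset of genes; insulin dose and duration not given; both raised and lowered dpERK matter.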 A plus sign joins genes that one reagent is predicted to hit. Not all columns of the deposit are shown. The record does not give: the amount of reagent, the time to read-out.

gene | PubChem SID | replicate 1, z-score of dpERK with insulin
mu2 (mutator 2) | SID104188518 | 0.77
mu2 (mutator 2) | SID104201252 | 0.52
Pstk + Tim9b | SID104199296 | -0.1
Pstk + Tim9b | SID104200084 | 0.6
teq (Tequila) | SID104190090 | -1.19
teq (Tequila) | SID104191093 | -0.03
teq (Tequila) | SID104191094 | -0.61
Marf1 (Meiosis regulator and mRNA stability factor 1) | SID104183539 | 0.11
Marf1 (Meiosis regulator and mRNA stability factor 1) | SID104183566 | -0.2
CG14984 | SID104188234 | 0.96
Elp2 (Elongator complex protein 2) | SID104185887 | 0.54
CatB (Catalase B) | SID104182986 | -1.28
Taz (Tafazzin) | SID104187496 | 0.2
Taz (Tafazzin) | SID104202036 | 0.34
drl (derailed) | SID104183315 | 0.1

The list goes on (3 carried over from the part before).
gene | PubChem SID | replicate 1, z-score of dpERK with insulin
Taz (Tafazzin) | SID104187496 | 0.2
Taz (Tafazzin) | SID104202036 | 0.34
drl (derailed) | SID104183315 | 0.1
CG17211 | SID104182379 | 0
smp-30 (Senescence marker protein-30) | SID104196851 | -0.84
ERp44 (Endoplasmic reticulum protein 44) | SID104200007 | -0.04
flw (flapwing) | SID104197784 | -0.1
flw (flapwing) | SID104198566 | -2.08
CG13130 (retired record) | SID104182018 | -5.8
alka (alkaliphile) | SID104185928 | 0.33
Deaf1 (Deformed epidermal autoregulatory factor-1) | SID104190935 | 1
Deaf1 (Deformed epidermal autoregulatory factor-1) | SID104202145 | -0.57
PolE1 (DNA polymerase epsilon subunit 1) | SID104195904 | 0.3
CG1941 | SID104186594 | 0.39
Rbp (RIM-binding protein) | SID104195516 | -1.29
Rbp (RIM-binding protein) | SID104195518 | 0.66
gammaTub23C (gamma-Tubulin at 23C) | SID104180612 | -0.28
muskelin | SID104187065 | -1.01
CG16713 | SID104180269 | -0.29
lov (jim lovell) | SID104184457 | 0.53
CG13614 | SID104194409 | -0.18
Rca1 (Regulator of cyclin A1) | SID104183199 | -1.67
CG14109 | SID104189904 | -0.13
PGRP-SC1b (Peptidoglycan recognition protein SC1b) | SID104187007 | 0.05
CG5281 | SID104195553 | -0.22
CG16995 | SID104180272 | 0.5
CG1360 | SID104186198 | 0.57
